Assay results reported in PubChem BioAssay AID1688 (National Center for Advancing Translational Sciences (NCATS), 2009).
Among all 220,000 compounds or so, about 2,400 (1.1%) were called active. Inconclusive means that the source gave no clear call. Such entries were picked first, then a sample of the others. Calls come from the whole dose curve; as a rule, active = well fitted inhibition curve with a large enough effect; inconclusive = small, poorly fitted or top-dose-only effect, or effect the other way; inactive = no such curve, though single readings can be large or run the other way. A potency beside an inconclusive call is a rough fit, not a confirmed value.
% is set by controls: 0 for no effect and ±100 for the full control effect; potency is the fitted concentration of half-maximal effect.

Assay: qHTS Multiplex Assay to Identify Dual Action Probes in a Cell Model of Huntington: Aggregate Formation (GFP); note: nearly all actives have a fitted effect of over 60% in size
Conditions: PC12 HttQ103-GFP aggregates, Acumen cytometry, 40 h; activity change, negative = inhibition: at 46.1 µM (top of the series) unless noted
In short: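 Steps: seed 1500 PC12 HTTQ103-GFP cells/well; add tebufenozide, 100 nM final; add compound titration; add ATPLite reagent; quantify GFP aggregates by laser scanning cytometry.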
With `COC(=O)[C@@H]1C[C@]2(OC(=O)c3ccccc3)C=CC(=O)C[C@@H]2N1C(=O)OCc1ccccc1` the Potency was inconclusive: 11.2 µM [activator, partial curve]. For `CCOC(=O)c1oc2ccc(S(=O)(=O)Nc3ccc4c(c3)n(C)c(=O)n4C)cc2c1C`, the Potency was “inactive”. For `CC1(C(=O)NC2CCCC2)CCC(=O)N1Cc1cccs1` (centres undefined), the Potency was inconclusive: 35.5 µM [activator, single point]. In the case of `Cc1ccc(-c2cc(C(=O)Nc3cnn(C(C)C)c3)no2)cc1`, the Potency is reported as inconclusive: 11.2 µM [inhibitor, single point]. With `CN(C)CCNc1nc2c(c(=O)[nH]c(=O)n2C)n1CC(O)COc1ccc(Cl)cc1` (centres undefined) the Potency was “inactive”. In the case of `Cc1ccc(C(C(=O)NC2CCCC2)N(Cc2cccs2)C(=O)CNC(=O)c2cccs2)o1` (centres undefined), the Potency is reported as inconclusive: 14.1 µM [activator, single point]. In the case of `CN(C)S(=O)(=O)c1cccc(NC(=S)N2CCc3ccccc32)c1`, the Potency is reported as inconclusive: 25.1 µM [inhibitor, single point]. In the case of `Cc1cc(/C=C2\Sc3ccccc3N2C)cc(C)[n+]1CC1CCCO1` (centres undefined), the Potency is reported as active: 2.82 µM. In the case of `Cn1c(=O)c(-[n+]2ccccc2)c([O-])c2ccccc21`, the Potency is reported as inconclusive: 3.55 µM [activator, single point]. For `CCCC(=NCCc1c(C)[nH]c2ccccc12)C1=C(O)CC(c2ccccc2)CC1=O` (centres undefined), the Potency was “inactive”. For `CCCn1c(SCC(=O)Nc2ccccc2Oc2ccccc2)n[nH]c1=O`, the Potency was “inactive”. With `O=C(/C=C/c1ccc(Cl)cc1)Nc1ccc(S(=O)(=O)Nc2ncccn2)cc1` the Potency was inconclusive: 35.5 µM [activator, single point]. In the case of `CC(=O)C1=C(C)NC(SCc2ccc(C#N)cc2)=C(C#N)C1c1ccco1` (centres undefined), the Potency is reported as “inactive”. With `COc1ccc(C(=O)Nc2ccc(C)c(S(=O)(=O)N3CCCCCC3)c2)cc1` the Potency was inconclusive: 35.5 µM [inhibitor, single point]. For `Cc1ccc(-c2nnc(CSc3nnc(COc4ccccc4)n3-c3ccccc3)o2)cc1`, the Potency was inconclusive: 25.1 µM [inhibitor, single point]. With `CC1=C(C(=O)Nc2ccccc2C)C(c2ccc(C)o2)N2C(=O)CSC2=N1` (centres undefined) the Potency was inconclusive: 35.5 µM [activator, single point]. For `Cc1cccc(C(=O)Nc2cccc(C(=O)N3CCOCC3)c2)c1`, the Potency was “inactive”. For `Cc1ccc(S(=O)(=O)N(CC(=O)N2CCN(c3ccccc3F)CC2)C2CCCCC2)cc1`, the Potency was inconclusive: 14.1 µM [inhibitor, single point]. With `CN(NC(=O)c1cccc(Cl)c1)c1nc(-c2ccccc2)nnc1C(F)(F)F` the Potency was active: 1 µM. In the case of `CC(=O)n1cc([C@@H]2C=C(C(=O)NCc3ccccc3)O[C@H](OCCCCO)C2)c2ccccc21`, the Potency is reported as inconclusive: 3.16 µM [inhibitor, partial curve, poor fit]. For `CCOC(=O)N1CCC(NC(=O)C(Cc2ccccc2)NC(=O)C2CCCCC2)CC1` (centres undefined), the Potency was “inactive”. In the case of `Cc1onc(-c2c(F)cccc2Cl)c1C(=O)OCC(=O)c1c(N)n(C)c(=O)n(C)c1=O`, the Potency is reported as “inactive”. With `C=C(C)CNC(=S)N/N=C1\CCCCc2ccccc21` the Potency was inconclusive: 11.2 µM [inhibitor, single point]. With `CC[C@@H](C)[C@H](NC(=O)OCc1ccccc1)c1nnc([C@@H](NC(=O)OCc2ccccc2)[C@@H](C)CC)o1` the activity change, negative = inhibition was inactive: 7.19% [at 9.22 µM]. In the case of `S=C(Nc1ccccc1)Nc1nccs1`, the Potency is reported as inconclusive: 5.01 µM [inhibitor, single point]. In the case of `CC(=O)Nc1ccc(NC2=Nc3ccccc3N3C2=Nc2c(c(C)nn2-c2ccccc2)C3c2ccccc2)cc1` (centres undefined), the Potency is reported as inconclusive: 2.82 µM [inhibitor, single point]. With `CCc1nnc(NS(=O)(=O)c2ccc(NC(=S)NC(=O)c3ccc(OC)c(OC)c3)cc2)s1` the Potency was “inactive”. For `CCOC(=O)c1sc(NC(=O)c2ccncc2)nc1C`, the Potency was inconclusive: 3.16 µM [activator, single point]. With `CCn1c(Cn2nnc(-c3ccccc3)n2)nnc1SCc1ccc(Cl)c(Cl)c1` the Potency was inconclusive: 35.5 µM [inhibitor, single point]. In the case of `Oc1ccccc1/C=N/Nc1nc2ccccc2o1`, the Potency is reported as inconclusive: 5.62 µM [inhibitor, single point]. With `Cc1ccc(S(=O)(=O)CCC(=O)N2CCN(c3ccc(Cl)cc3)CC2)cc1` the Potency was inconclusive: 15.8 µM [inhibitor, single point]. For `COc1ccc(C(=O)N(C)Cc2ccccc2)cc1Br`, the Potency was inconclusive: 35.5 µM [inhibitor, single point]. In the case of `CCN1CCN(Cc2ccc(NC(=O)c3ccc(C)c(NC(=O)c4ccno4)c3)cc2C(F)(F)F)CC1`, the Potency is reported as inconclusive: 4.47 µM [inhibitor, partial curve]. With `CCSC1=C(C#N)C(c2ccc(C)o2)CC(=O)N1` (centres undefined) the activity change, negative = inhibition was inactive: 14.2% [at 9.22 µM]. In the case of `CCN(CC)CCN(C(=O)c1ccc(S(=O)(=O)N2CCCCC2)cc1)c1nc2cc3c(cc2s1)OCO3`, the Potency is reported as inconclusive: 1.78 µM [activator, partial curve]. For `Cc1[nH]n(-c2ccccc2)c(=O)c1/C=N/N1C(=O)c2cccc3cccc(c23)C1=O`, the activity change, negative = inhibition was inactive: -18.7% [at 9.22 µM]. With `CC1(C)CC(N(Cc2ccco2)C(=O)Cc2ccccc2)CCO1` (centres undefined) the Potency was inconclusive: 5.62 µM [inhibitor, single point]. For `C=CCN(c1ccccc1Cl)S(=O)(=O)c1cccc(C(=O)NCCc2ccc(OC)cc2)c1`, the Potency was inconclusive: 1.26 µM [activator, single point]. With `O=C(c1oc2ccccc2c1CSCc1ccccc1)N1CCN(c2ncccn2)CC1` the Potency was inconclusive: 15.8 µM [inhibitor, single point]. With `Nc1nonc1-n1nnc(C(=O)N/N=C/c2cc(Br)ccc2O)c1CSC1=NCCS1` the Potency was inconclusive: 1.26 µM [inhibitor, full curve]. For `Clc1ccc(C(c2nnnn2C2CCCCC2)N(Cc2cccnc2)Cc2ccco2)cc1` (centres undefined), the Potency was inconclusive: 5.62 µM [inhibitor, single point]. With `CCOC(=O)N1CCN(Cc2nc3c(c(=O)[nH]c(=O)n3C)n2CCCc2ccccc2)CC1` the Potency was inconclusive: 14.1 µM [activator, partial curve]. For `CC1(C)CC2CC(C)(CN2C(=O)COC(=O)CNC(=O)c2ccc(Cl)c(Cl)c2)C1` (centres undefined), the Potency was inconclusive: 25.1 µM [activator, single point]. In the case of `Cc1ccc(CSCCNC(=O)c2ccc(N(C)S(=O)(=O)c3ccccc3)cc2)cc1`, the Potency is reported as inconclusive: 12.6 µM [inhibitor, single point]. With `CCc1nnc(NC(=O)CSc2nnc(Cc3cc(=O)[nH]c(=O)[nH]3)n2-c2cccc(OC)c2)s1` the Potency was “inactive”. In the case of `COc1cc(C)c(Cl)cc1S(=O)(=O)NCc1ccncc1`, the Potency is reported as inconclusive: 5.62 µM [inhibitor, full curve]. With `CN(/N=C/c1ccc(C(C)(C)C)cc1)C1=NCCN1` the Potency was inconclusive: 2.51 µM [activator, full curve, poor fit]. In the case of `Cc1cc(C)cc(Oc2ncnc3c2ncn3Cc2c(Cl)cccc2Cl)c1`, the Potency is reported as inconclusive: 31.6 µM [inhibitor, single point]. With `CCOC(=O)c1ccc(N=c2ssnc2Cl)cc1` the Potency was inconclusive: 35.5 µM [inhibitor, single point]. With `COCCNC(=O)c1ccc(NC(C)=O)cc1` the Potency was inconclusive: 0.562 µM [inhibitor, partial curve, poor fit]. In the case of `N#CCSc1nnc(COc2cccc3ccccc23)n1-c1cccc(Cl)c1`, the Potency is reported as inconclusive: 35.5 µM [inhibitor, single point]. For `CN(C)C(CN=C1NS(=O)(=O)c2ccccc21)c1ccco1` (centres undefined), the Potency was inconclusive: 7.08 µM [activator, full curve, poor fit]. For `CCC(=O)OCCNc1cc(SCCC(=O)OC)c2nonc2c1[N+](=O)[O-]`, the Potency was inconclusive: 14.1 µM [inhibitor, single point]. With `O=C(/C=C/c1cccc([N+](=O)[O-])c1)NC(=S)Nc1cccc(NC(=O)c2ccccc2Cl)c1` the Potency was inconclusive: 35.5 µM [activator, partial curve]. For `O=c1cc(-c2ccccc2)c2cc3c(cc2[nH]1)OCCO3`, the Potency was inconclusive: 35.5 µM [inhibitor, single point]. With `CN(C)C(=O)c1c(-c2ccccc2)oc2ccc(O)cc12` the Potency was “inactive”. For `O=Nc1ccc(NOC(=O)c2ccc(Br)cc2)cc1`, the Potency was “inactive”. With `CC(C)n1c(SCC(=O)Nc2ccccc2N2CCCCC2)nc2c1c(=O)n(C)c(=O)n2C` the Potency was inconclusive: 1.26 µM [activator, single point]. For `O=c1c2cn[nH]c2[nH]c(=S)n1-c1cccc2ccccc12`, the Potency was “inactive”. For `O=C(CSc1nnc(Cc2csc(Nc3cccc(Cl)c3)n2)o1)N1CCc2ccccc21`, the Potency was inconclusive: 35.5 µM [inhibitor, single point]. In the case of `COc1ccc(-c2nn(-c3ccccc3)cc2C(=O)NC(=S)NNC(=O)c2ccncc2)cc1`, the Potency is reported as active: 10 µM. With `CNC(=S)N/N=C/c1cn(Cc2c(F)cccc2Cl)c2ccccc12` the Potency was inconclusive: 14.1 µM [inhibitor, partial curve, poor fit]. In the case of `O=C(c1ccccc1Cl)N1N=C(c2ccc(Br)cc2)CC1c1nc2ccccc2[nH]1` (centres undefined), the Potency is reported as inconclusive: 22.4 µM [inhibitor, single point]. With `Cc1n[nH]c(=S)n1/N=C/c1cccc(OCc2ccccc2)c1` the Potency was inconclusive: 0.501 µM [activator, full curve, poor fit].
